Results are given in words; binding and its absence hold for the method and conditions named. In cells and extracts the contact can be indirect. Some results given as binding are weak or reduced against the parent protein; the word gives no strength.

For the assay, the target named is T1, caveolin-1 (mouse (endogenous in trachea and lung)) (UniProt P49817).
T1 sequence: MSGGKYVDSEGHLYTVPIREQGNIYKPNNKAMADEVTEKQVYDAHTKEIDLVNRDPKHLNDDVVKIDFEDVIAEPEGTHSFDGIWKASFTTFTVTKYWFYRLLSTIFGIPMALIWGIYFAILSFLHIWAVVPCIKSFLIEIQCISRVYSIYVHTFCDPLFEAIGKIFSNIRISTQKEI
Kind of assay: co-IP; 2 mg total tissue homogenate (octylglucoside lysis buffer: 10 mM Tris-HCl pH 7.4, 50 mM NaCl, 60 mM octylglucoside, 1% Triton X100) incubated with 1 µg anti-cav-1 antibody in PBS + 0.02% Tween-20 at 4 °C overnight, protein G dynabeads 4 h at 4 °C, three washes; immunoblot for cav-3; trachea and lung, heart and skeletal muscle as positive controls.

B1: caveolin-3 (protein, UniProt P51637 1-151)
chain: MMTEEHTDLEARIIKDIHCKEIDLVNRDPKNINEDIVKVDFEDVIAEPEGTYSFDGVWKVSFTTFTVSKYWCYRLLSTLLGVPLALLWGFLFACISFCHIWAVVPCIKSYLIEIQCISHIYSLCIRTFCNPLFAALGQVCSNIKVVLRREG
B1: the binding entry is listed as “binds”.

For the origin of these results see article PMC5951923.
